Reference: PMC12130296
No constants are given. Whether binding was seen depends on the method and setting. Binding seen in cells or lysates may run through a third protein. Some entries that bind do so weakly or less than the wild type.

Amino acid sequences for entries named in this document (tags omitted).
UniProt Q13546: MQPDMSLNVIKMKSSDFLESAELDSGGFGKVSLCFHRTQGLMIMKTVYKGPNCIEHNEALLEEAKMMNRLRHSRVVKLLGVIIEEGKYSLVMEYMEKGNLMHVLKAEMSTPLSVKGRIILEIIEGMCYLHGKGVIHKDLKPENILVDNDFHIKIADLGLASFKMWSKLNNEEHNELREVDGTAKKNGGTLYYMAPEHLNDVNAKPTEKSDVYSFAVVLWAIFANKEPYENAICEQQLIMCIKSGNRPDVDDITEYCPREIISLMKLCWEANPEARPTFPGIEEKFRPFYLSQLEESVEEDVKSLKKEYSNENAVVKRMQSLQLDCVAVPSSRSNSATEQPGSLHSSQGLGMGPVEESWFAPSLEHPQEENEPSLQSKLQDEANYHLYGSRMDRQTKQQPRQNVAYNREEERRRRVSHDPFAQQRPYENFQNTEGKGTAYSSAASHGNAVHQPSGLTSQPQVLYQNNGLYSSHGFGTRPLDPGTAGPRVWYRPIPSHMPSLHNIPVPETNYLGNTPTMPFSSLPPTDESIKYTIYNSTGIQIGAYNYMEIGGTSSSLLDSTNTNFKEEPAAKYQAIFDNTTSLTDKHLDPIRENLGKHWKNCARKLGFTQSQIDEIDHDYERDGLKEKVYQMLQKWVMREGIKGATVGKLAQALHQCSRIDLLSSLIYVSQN
UniProt Q13158: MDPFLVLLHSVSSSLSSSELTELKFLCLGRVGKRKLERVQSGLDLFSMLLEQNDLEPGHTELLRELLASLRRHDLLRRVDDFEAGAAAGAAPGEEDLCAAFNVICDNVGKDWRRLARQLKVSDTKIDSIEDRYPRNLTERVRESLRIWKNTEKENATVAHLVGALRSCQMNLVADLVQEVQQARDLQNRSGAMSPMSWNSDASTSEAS

Key:
[1] = target: phosphorylated form of RIPK1 (pRIPK1) (human (endogenous in HT29, SUIT-020 and Jurkat)) (UniProt Q13546); experiment: co-IP; endogenous proteins; HT29, SUIT-020 or Jurkat cells pretreated 1 h with 5 µM BV6 and 50 µM zVAD-fmk (some samples also 10 µM Nec-1s), then 500 ng/ml CD95L; IP with 2 µg antibody against the bait, rotated overnight at 4 °C, washed four times with PBS; western blot
[2] = target: procaspase-8 (human (endogenous in HT29, SUIT-020 and Jurkat)) (UniProt Q14790); experiment: as above
[3] = target: FADD (human (endogenous in HT29, SUIT-020 and Jurkat)) (UniProt Q13158); experiment: as above
[4] = target: RIPK1 (human (endogenous in HT29, SUIT-020 and Jurkat)) (UniProt Q13546); experiment: as above
[5] = target: phosphorylated form of RIPK1 (pRIPK1) (human (endogenous in HT29, SUIT-020 and Jurkat)) (UniProt Q13546); experiment: co-IP; SUIT-020 cells, BV6/zVAD-fmk 1 h then 500 ng/ml CD95L 2 h; lysate fractionated on Superose 6 10/300 at 4 °C; IP from the pooled high molecular weight fractions 2–6; western blot
[6] = target: T1, CD95 (human (endogenous in SUIT-020 and HT29)), P25445; experiment: co-IP; DISC IP (anti-APO-1 antibody against CD95) from SUIT-020 cells treated with 500 ng/ml CD95L alone for the indicated timepoints, unstimulated sample included; western blot; details: remark: other sources report otherwise
T1 chain: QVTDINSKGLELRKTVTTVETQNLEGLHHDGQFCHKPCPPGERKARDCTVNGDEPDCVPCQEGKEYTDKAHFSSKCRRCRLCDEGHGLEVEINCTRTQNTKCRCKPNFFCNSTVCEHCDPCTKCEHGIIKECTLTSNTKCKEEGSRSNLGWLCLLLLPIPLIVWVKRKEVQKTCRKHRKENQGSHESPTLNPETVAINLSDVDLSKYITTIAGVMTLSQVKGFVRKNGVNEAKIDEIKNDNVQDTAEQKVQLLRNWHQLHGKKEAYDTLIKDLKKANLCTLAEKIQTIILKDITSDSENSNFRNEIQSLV

Measured: binding

B1: procaspase-10 (protein, UniProt Q92851 1-521)
chain: MKSQGQHWYSSSDKNCKVSFREKLLIIDSNLGVQDVENLKFLCIGLVPNKKLEKSSSASDVFEHLLAEDLLSEEDPFFLAELLYIIRQKKLLQHLNCTKEEVERLLPTRQRVSLFRNLLYELSEGIDSENLKDMIFLLKDSLPKTEMTSLSFLAFLEKQGKIDEDNLTCLEDLCKTVVPKLLRNIEKYKREKAIQIVTPPVDKEAESYQGEEELVSQTDVKTFLEALPQESWQNKHAGSNGNRATNGAPSLVSRGMQGASANTLNSETSTKRAAVYRMNRNHRGLCVIVNNHSFTSLKDRQGTHKDAEILSHVFQWLGFTVHIHNNVTKVEMEMVLQKQKCNPAHADGDCFVFCILTHGRFGAVYSSDEALIPIREIMSHFTALQCPRLAEKPKLFFIQACQGEEIQPSVSIEADALNPEQAPTSLQDSIPAEADFLLGLATVPGYVSFRHVEEGSWYIQSLCNHLKKLVPRMLKFLEKTMEIRGRKRTVWGAKQISATSLPTAISAQTPRPPMRRWSSVS
not listed: [6]
binds: all other assays above

B2: procaspase-8, Q14790 1-479 (protein)
chain: MDFSRNLYDIGEQLDSEDLASLKFLSLDYIPQRKQEPIKDALMLFQRLQEKRMLEESNLSFLKELLFRINRLDLLITYLNTRKEEMERELQTPGRAQISAYRVMLYQISEEVSRSELRSFKFLLQEEISKCKLDDDMNLLDIFIEMEKRVILGEGKLDILKRVCAQINKSLLKIINDYEEFSKERSSSLEGSPDEFSNGEELCGVMTISDSPREQDSESQTLDKVYQMKSKPRGYCLIINNHNFAKAREKVPKLHSIRDRNGTHLDAGALTTTFEELHFEIKPHDDCTVEQIYEILKIYQLMDHSNMDCFICCILSHGDKGIIYGTDGQEAPIYELTSQFTGLKCPSLAGKPKVFFIQACQGDNYQKGIPVETDSEEQPYLEMDLSSPQTRYIPDEADFLLGMATVNNCVSYRNPAEGTWYIQSLCQSLRERCPRGDDILTILTEVNYEVSNKDDKKNMGKQMPQPTFTLRKKLVFPSD
binds: [6]
